Assay results published in PubChem BioAssay AID493014 (National Center for Advancing Translational Sciences (NCATS), 2011).
About 170 (0.05%) of roughly 340,000 compounds were called active. The shares of active, inactive and inconclusive entries below differ from those in the screen. Calls follow the shape of the dose curve; as a rule, active = well fitted inhibition curve with a large enough effect in the signal ratio, with a control signal flat (not every such curve was filed as active); inconclusive = small, poorly fitted or top-dose-only effect, or effect the other way, or a change in a side signal; inactive = flat fitted curve, though single readings scatter; the % refers to the signal ratio. Where the call is inconclusive, the potency comes from a doubtful curve fit.

Experiment: qHTS Assay to Find Inhibitors of Chronic Active B-Cell Receptor Signaling;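 as to activity change, negative = inhibition: plate controls were basal doxycycline-induced cells for no effect and cells given 10 µM MG132 for full effect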
Conditions: ABC-DLBCL IkBa-CBG/CBR reporter, luminescence ratio (green luciferase fused to IkBa over red control in TMD8 lymphoma cells), 4 h; activity change, negative = inhibition: at 46.1 µM (top of the series) unless noted
In short: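 Doxycycline induced both beetle luciferases in TMD8 lymphoma cells; IKK-driven degradation limits the IkappaBalpha-fused green signal, while red luminescence normalises for cell number and nonspecific effects. Compounds tested up to 46 uM, 4 hrs.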
Potency is read from the fitted curve at half-maximal effect.

SMILES	activity change, negative = inhibition	Potency
COc1ccc(NC(C)=O)cc1NC(C)C(=O)Nc1cccc(S(=O)(=O)N2CCOCC2)c1 (stereo unspecified)	inconclusive: -0.703%	–
CC(=O)N1CCOc2cc(S(=O)(=O)Nc3cccc(C(F)(F)F)c3)c(Cl)cc21	inconclusive: 9.5%	–
O=[N+]([O-])c1ccccc1-c1ccc(/C=N/n2cnnc2)o1	inactive	–
O=C(/C=C/c1c(Cl)cccc1Cl)NCc1ccco1	inconclusive: 10.1%	–
N#Cc1ccc(COC(=O)c2ccc(N3CCCC3)c([N+](=O)[O-])c2)cc1	inconclusive: 2.37%	–
Cc1ccc(-n2c(SCC(=O)N/N=C/c3c(C)nn(-c4ccccc4)c3C)nc3ccccc3c2=O)cc1	inactive	–
CCCCC(OC(=O)CN1C(=O)COc2ccccc21)C(=O)NC1CCCCC1 (stereo unspecified)	inconclusive: -0.761%	–
O=C(NCC1CCCCC1)c1ccc(F)cc1Cl	inconclusive: 0.515%	–
Cc1cc(Nc2cccc([N+](=O)[O-])c2)n2c(nc3ccccc32)c1C#N	inconclusive: 8.56%	–
CC1(c2ccc3ccccc3c2)NC(=O)N(CC(=O)NCC(C)(C)N2CCOCC2)C1=O (stereo unspecified)	inactive	–
COc1ccc(-c2nc(CNS(=O)(=O)c3ccc(OC)c(OC)c3)cs2)cc1	inactive	–
O=C(NCCCn1ccnc1)Nc1ccc(Cl)cc1	inconclusive: 11.6%	–
Nc1ccc2nn(-c3ccccc3)nc2c1	inconclusive: 21.3%	–
C/C(=N\NC(=O)c1cccc(Br)c1)c1cccnc1	–	inconclusive: 10 µM [falling, partial curve]
COc1ccc(C(C)(C)C)cc1NC(=O)c1ccc2c(c1)SC1=NS(=O)(=O)CCN12	inconclusive: -19.6%	–
Cc1cc(Nc2cccc(Cl)c2C)n2ncnc2n1	inconclusive: 5.29%	–
Cc1cccc(N2CCN(C(=O)c3cc(S(=O)(=O)N4CCOCC4)cn3C)CC2)c1C	inconclusive: 2.84%	–
COc1cc(/C=N/NC(=O)c2cc(-c3ccccc3)nc3ccccc23)ccc1O	inconclusive: 5.92%	–
COC(=O)CNC(=O)C1CCN(S(=O)(=O)c2cnc[nH]2)CC1	inconclusive: 0.135%	–
COc1ccc(OC)c(/C=N/NC(=O)c2cc(-c3ccc(C)o3)nc3ccccc23)c1	inactive	–
COc1ccc(NC(=O)CN2C(=O)NC3(CCCC3)C2=O)cc1Cl	inconclusive: 0.97%	–

SMILES	activity change, negative = inhibition	Potency
CCOC(=O)c1cc(-c2ccccc2)n(-c2cccc(C(=O)Nc3ccc(F)c(F)c3)c2)c1C	–	inconclusive: 14.1 µM [rising, partial curve, poor fit]
CCCC(=O)Nc1c(C)n[nH]c1C	inconclusive: 1.19%	–
O=C(Nc1c(F)cccc1F)c1cnc(N2CCN(c3ccccn3)CC2)c2ccccc12	inconclusive: 3.94%	–
CC1=CC(C)(C)N(C(=O)CSc2nnc(N)s2)c2c(C)cc(C)cc21	inactive	–
O=C(NCc1ccc(Cl)cc1)c1cc(S(=O)(=O)N2CCCCC2)c[nH]1	inactive	–
O=C(NC(=S)NC1CCSC1=O)c1cccc([N+](=O)[O-])c1 (stereo unspecified)	–	inconclusive: 20 µM [falling, partial curve, poor fit]
CCOC(=O)c1ccc(N=Cc2c(O)c3ccccc3oc2=O)cc1	–	inconclusive: 6.31 µM [falling, partial curve]
CC(=O)NC1=NN(C(C)=O)C(C)(c2ccc3ccccc3c2)S1 (stereo unspecified)	inactive	–
COc1ccc(-c2cc(-c3ccccc3)no2)cc1	–	inconclusive: 6.51 µM [falling, single point]
O=C(CNC(=S)NC(=O)c1cccc([N+](=O)[O-])c1)c1ccccc1	inconclusive: 3.56%	–
COc1ccccc1NC(=O)Cn1nc(-c2ccc3c(c2)OCCO3)ccc1=O	–	inconclusive: 7.94 µM [falling, partial curve, poor fit]
Nc1nc2c(-c3ccc(Br)cc3)nnn2c2ccccc12	inconclusive: 3.83%	–
O=c1[nH]nc(SCc2ccccc2Cl)n1-c1ccc2c(c1)OCCO2	inconclusive: 6.51%	–
O=C(O)CCn1nnc(-c2cccs2)n1	–	inconclusive: 14.1 µM [rising, partial curve, poor fit]
COc1ccc(C2CC(c3ccc(Cl)cc3)=NN2C(C)=O)cc1 (stereo unspecified)	inactive	–
Cc1ccc(N/C(N)=N/c2nc3c(c(=O)[nH]2)CCCC3)c(C)c1	–	inconclusive: 31.6 µM [falling, single point]
S=c1c2c(nc3nc[nH]n13)CCC2	–	inconclusive: 3.55 µM [falling, single point]
Oc1ccc(NCc2cccc(OCc3ccccc3)c2)cc1	–	inconclusive: 35.5 µM [falling, single point]
CCOC(=O)c1nnn2c1nc(SCC(C)=O)c1ccccc12	inconclusive: -17.4%	–
Cn1cc([N+](=O)[O-])c(C(=O)Nc2ccc3nc(-c4ccccc4)[nH]c3c2)n1	inconclusive: 3.79%	–
COc1ccc(C(=O)NCCC2=CCCCC2)cc1OC	–	inconclusive: 0.82 µM [rising, partial curve, poor fit]

Ordered by heavy-atom count (descending): some entries from above
SMILES	activity change, negative = inhibition	Potency
Cc1ccc(-n2c(SCC(=O)N/N=C/c3c(C)nn(-c4ccccc4)c3C)nc3ccccc3c2=O)cc1	inactive	–
CCOC(=O)c1cc(-c2ccccc2)n(-c2cccc(C(=O)Nc3ccc(F)c(F)c3)c2)c1C	–	inconclusive: 14.1 µM [rising, partial curve, poor fit]
O=C(Nc1c(F)cccc1F)c1cnc(N2CCN(c3ccccn3)CC2)c2ccccc12	inconclusive: 3.94%	–
CC1(c2ccc3ccccc3c2)NC(=O)N(CC(=O)NCC(C)(C)N2CCOCC2)C1=O (stereo unspecified)	inactive	–
Cc1cccc(N2CCN(C(=O)c3cc(S(=O)(=O)N4CCOCC4)cn3C)CC2)c1C	inconclusive: 2.84%	–
COc1ccc(C(C)(C)C)cc1NC(=O)c1ccc2c(c1)SC1=NS(=O)(=O)CCN12	inconclusive: -19.6%	–
CCCCC(OC(=O)CN1C(=O)COc2ccccc21)C(=O)NC1CCCCC1 (stereo unspecified)	inconclusive: -0.761%	–
CC(=O)N1CCOc2cc(S(=O)(=O)Nc3cccc(C(F)(F)F)c3)c(Cl)cc21	inconclusive: 9.5%	–
Cn1cc([N+](=O)[O-])c(C(=O)Nc2ccc3nc(-c4ccccc4)[nH]c3c2)n1	inconclusive: 3.79%	–
Cc1cc(Nc2cccc([N+](=O)[O-])c2)n2c(nc3ccccc32)c1C#N	inconclusive: 8.56%	–
O=c1[nH]nc(SCc2ccccc2Cl)n1-c1ccc2c(c1)OCCO2	inconclusive: 6.51%	–
COc1ccc(NC(=O)CN2C(=O)NC3(CCCC3)C2=O)cc1Cl	inconclusive: 0.97%	–
COc1ccc(C2CC(c3ccc(Cl)cc3)=NN2C(C)=O)cc1 (stereo unspecified)	inactive	–
COC(=O)CNC(=O)C1CCN(S(=O)(=O)c2cnc[nH]2)CC1	inconclusive: 0.135%	–
Nc1nc2c(-c3ccc(Br)cc3)nnn2c2ccccc12	inconclusive: 3.83%	–
O=C(NCCCn1ccnc1)Nc1ccc(Cl)cc1	inconclusive: 11.6%	–
O=C(NCC1CCCCC1)c1ccc(F)cc1Cl	inconclusive: 0.515%	–
Nc1ccc2nn(-c3ccccc3)nc2c1	inconclusive: 21.3%	–
O=C(O)CCn1nnc(-c2cccs2)n1	–	inconclusive: 14.1 µM [rising, partial curve, poor fit]
S=c1c2c(nc3nc[nH]n13)CCC2	–	inconclusive: 3.55 µM [falling, single point]

Arranged by length of the SMILES (ascending): 3 of the compounds above.
SMILES	activity change, negative = inhibition	Potency
S=c1c2c(nc3nc[nH]n13)CCC2	–	inconclusive: 3.55 µM [falling, single point]
CC(=O)NC1=NN(C(C)=O)C(C)(c2ccc3ccccc3c2)S1 (stereo unspecified)	inactive	–
COc1ccccc1NC(=O)Cn1nc(-c2ccc3c(c2)OCCO3)ccc1=O	–	inconclusive: 7.94 µM [falling, partial curve, poor fit]

Next entries follow.

SMILES	activity change, negative = inhibition	Potency
CSc1ccc(C2=CC(=O)C[C@H](c3ccc(Cl)cc3)C2)cc1	inconclusive: 9.13%	–
C/C=C/Cn1c(Br)nc2c1c(=O)n(C)c(=O)n2C	inconclusive: 0.104%	–
O=C(NCc1ccco1)c1ccc(-c2cccc(Cl)c2)o1	inconclusive: 10.3%	–
CCn1c2ccccc2c2cc(CN3CCN(C(=O)c4ccco4)CC3)ccc21	inactive	–
CC(C)CCN1CC(=O)N2[C@@H](Cc3c([nH]c4ccccc34)C2(C)C)C1=O	inconclusive: -0.926%	–
Clc1ccccc1-c1cc(COc2ccc3ccccc3c2)no1	–	inconclusive: 9.2 µM [rising, partial curve, poor fit]
COc1ccccc1-c1sc2cc3c(cc2c1C#CCO)OCO3	inactive	–
COc1ccc(NC(=O)CSc2nnc(C3CCCCC3)n2N)c(OC)c1	inconclusive: 0.917%	–
CCN(CC)S(=O)(=O)c1ccc(N2CCCCC2)c(NC(=O)/C=C/c2ccc(OC)c(OC)c2)c1	inconclusive: 2.32%	–
CCOC(=O)c1c(C)[nH]c(C(=O)N/N=C\c2ccccc2Cl)c1C	–	inconclusive: 25.9 µM [falling, single point]
Cc1ccc2c(C(=O)CSc3ccccc3)c(C)[nH]c2c1	–	inconclusive: 0.731 µM [rising, full curve]
Cc1nc(-c2ccccc2)sc1C(=O)CSc1ccc(Cl)cc1	–	inconclusive: 0.651 µM [rising, full curve]
CCn1ccnc1CNC(=O)c1ccc2oc(CCCc3ccccc3)nc2c1	inconclusive: 6.56%	–
COc1cccc(-n2c(=O)c3sccc3n(CC(=O)NCC3CCCO3)c2=O)c1 (stereo unspecified)	inconclusive: 0.998%	–
COc1ccc(Nc2nc(NCc3ccco3)nc(N/N=C/c3ccc(O)cc3)n2)cc1	–	inconclusive: 11.6 µM [falling, partial curve]
CCOC(=O)Cc1csc(NC(=O)c2ccoc2C)n1	–	inconclusive: 13 µM [falling, partial curve]
N=C1/C(=C/c2ccc(OCc3ccccc3)cc2)C(=O)N=C2SC(CC(=O)N3CCOCC3)=NN12	inconclusive: 11.5%	–
COC(=O)c1cccc(NC(=O)c2ccccc2)c1	inconclusive: -20.8%	–
[O-]/[N+](=C/c1cccnc1)c1ccc(Br)cc1	–	inconclusive: 6.51 µM [rising, partial curve, poor fit]
O=C(N=Nc1c(O)[nH]c2ccc(F)cc12)c1ccc(NS(=O)(=O)c2cccs2)cc1	inactive	–
CCn1c(SCC(=O)Nc2cc(OC)c(OC)c(OC)c2)nnc1-c1cccs1	inconclusive: -5.06%	–

SMILES	activity change, negative = inhibition	Potency
N#Cc1cc2ccc(N3CCOCC3)cc2cc1C#N	inconclusive: 10.1%	–
COCCN(CC(=O)Nc1cccc(C)c1C)C(=O)C1(c2ccc(Cl)cc2)CCC1	inconclusive: 2.2%	–
COc1ccc2ccccc2c1-c1sc(Nc2ccccc2)n[n+]1-c1ccc(F)cc1	–	inconclusive: 15.8 µM [falling, single point]
CCN(CC)CCCC(C)Nc1c2ccc(Cl)cc2nc2ccc(OC)cc12 (stereo unspecified)	inconclusive: 28.6%	–
COC(=O)c1[nH]c2ccc(C)cc2c1NC(=O)CN1CCCc2ccccc21	inconclusive: 13.7%	–
CCOc1ccc(NC(=O)CN2C(=O)NC(CCc3ccccc3)C2=O)cc1OCC (stereo unspecified)	inactive	–
CCOC(=O)CNC(c1ccccc1)c1cc(Br)ccc1NC(=O)CCN1CCOCC1 (stereo unspecified)	inconclusive: -1.06%	–
COc1ccc(/C(C)=N/Nc2nccnc2Cl)cc1	–	inconclusive: 32.6 µM [falling, partial curve, poor fit]
COc1ccc(C2=CC(=O)N(Nc3ccccc3)C2=O)cc1	–	inconclusive: 22.4 µM [falling, partial curve]
CCOc1ccc(S(=O)(=O)NCC(c2ccco2)S(=O)(=O)c2cccs2)cc1 (stereo unspecified)	inactive	–
CC1CCCCC1NC(=S)Nc1ccc(SC(F)F)cc1 (stereo unspecified)	inconclusive: -7.74%	–
CCN1/C(=C2\C(=O)N(C)C(=S)N2c2ccccc2)C=Cc2ccccc21	inconclusive: 20.5%	–
CCN1C(=O)/C(=C2\SC(=S)N(NC(=O)c3ccccc3O)C2=O)c2ccccc21	inconclusive: 0.129%	–
Clc1ccc2nc(COc3ccccc3)[nH]c2c1	inconclusive: -17.9%	–
CCOC(=O)N1CCN(Cc2nc(-c3ccccc3)no2)CC1	inactive	–
Cc1c(Nc2ccc3nonc3c2[N+](=O)[O-])c(=O)n(-c2ccccc2)n1C	inactive	–
COc1ccc(Cl)cc1NC(=S)N(Cc1cccnc1)Cc1ccco1	inconclusive: -1.04%	–
Cc1ccc(SCc2cn3ccccc3n2)cc1	–	inconclusive: 25.1 µM [falling, single point]
